Test results published in PMC4501001.
Results are given in words; binding and its absence hold for the method and conditions named. Some binding calls cover weakened binding; strength is not graded here.

Protein sequences, listed by entry. Tags and fused reporters are not part of them. Residues count along the entry.
UniProt P08670: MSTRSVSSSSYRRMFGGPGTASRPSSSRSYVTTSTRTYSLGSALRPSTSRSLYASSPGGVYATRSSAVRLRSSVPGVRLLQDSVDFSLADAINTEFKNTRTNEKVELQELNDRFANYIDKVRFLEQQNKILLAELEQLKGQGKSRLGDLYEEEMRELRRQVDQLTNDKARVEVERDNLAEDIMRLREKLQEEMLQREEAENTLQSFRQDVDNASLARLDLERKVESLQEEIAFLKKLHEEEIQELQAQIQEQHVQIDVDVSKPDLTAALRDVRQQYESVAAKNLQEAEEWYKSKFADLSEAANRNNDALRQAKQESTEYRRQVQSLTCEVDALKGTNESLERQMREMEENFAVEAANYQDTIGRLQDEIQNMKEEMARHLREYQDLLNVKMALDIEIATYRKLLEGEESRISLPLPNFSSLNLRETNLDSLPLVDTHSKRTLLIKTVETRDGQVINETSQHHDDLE
UniProt P08069, residues 31-1367: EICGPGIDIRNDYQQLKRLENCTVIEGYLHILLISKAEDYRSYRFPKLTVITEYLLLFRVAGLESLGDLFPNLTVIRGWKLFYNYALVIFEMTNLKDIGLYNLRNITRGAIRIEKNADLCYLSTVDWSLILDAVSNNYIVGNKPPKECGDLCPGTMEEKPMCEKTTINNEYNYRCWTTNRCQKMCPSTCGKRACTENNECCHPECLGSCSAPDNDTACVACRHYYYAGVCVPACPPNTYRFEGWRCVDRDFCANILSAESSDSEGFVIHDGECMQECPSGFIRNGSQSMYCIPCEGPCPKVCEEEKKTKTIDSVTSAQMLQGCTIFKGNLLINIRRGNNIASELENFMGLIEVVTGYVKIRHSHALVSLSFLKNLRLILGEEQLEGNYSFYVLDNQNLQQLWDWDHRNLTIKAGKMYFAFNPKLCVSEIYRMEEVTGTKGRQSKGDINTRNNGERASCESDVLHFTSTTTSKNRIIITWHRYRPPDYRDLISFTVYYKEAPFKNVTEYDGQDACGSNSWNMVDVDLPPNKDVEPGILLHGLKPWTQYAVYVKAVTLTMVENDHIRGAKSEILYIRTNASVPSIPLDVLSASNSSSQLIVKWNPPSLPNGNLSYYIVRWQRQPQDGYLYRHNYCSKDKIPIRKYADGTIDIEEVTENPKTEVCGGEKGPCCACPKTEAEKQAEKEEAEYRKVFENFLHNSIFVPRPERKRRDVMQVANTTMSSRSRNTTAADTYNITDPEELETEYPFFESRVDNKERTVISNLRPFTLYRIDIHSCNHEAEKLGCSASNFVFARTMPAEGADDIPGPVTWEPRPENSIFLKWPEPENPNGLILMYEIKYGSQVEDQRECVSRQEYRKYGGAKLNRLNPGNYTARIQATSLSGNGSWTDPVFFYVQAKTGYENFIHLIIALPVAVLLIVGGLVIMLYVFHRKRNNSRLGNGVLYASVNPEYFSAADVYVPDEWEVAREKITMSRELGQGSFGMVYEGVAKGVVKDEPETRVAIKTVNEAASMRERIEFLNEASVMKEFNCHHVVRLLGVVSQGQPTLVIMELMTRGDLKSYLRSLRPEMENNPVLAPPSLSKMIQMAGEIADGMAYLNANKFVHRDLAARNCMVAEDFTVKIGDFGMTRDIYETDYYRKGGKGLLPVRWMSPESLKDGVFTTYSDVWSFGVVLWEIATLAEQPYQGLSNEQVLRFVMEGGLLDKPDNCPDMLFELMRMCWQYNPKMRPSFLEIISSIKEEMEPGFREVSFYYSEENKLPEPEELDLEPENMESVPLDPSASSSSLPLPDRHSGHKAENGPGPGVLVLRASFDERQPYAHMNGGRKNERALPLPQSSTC

Experiments:
[1] = target: vimentin (recombinant vimentin protein) (UniProt P08670); test: co-IP; recombinant vimentin (10 pmol) and recombinant IGF1R (5 pmol) co-incubated 1 h at room temperature; precipitated over night at 4 °C with anti-vimentin antibody (RV202) or normal mouse IgG on Dynabeads Protein G in M-PER; IGF1R detected by western blot; both purified
[2] = target: Recombinant human IGF1R protein (full length, Abnova) (human) (UniProt P08069); test: drug affinity responsive target stability (DARTS) with western blot; recombinant human IGF1R in 25 mM Tris-HCl pH 8.0, 2% glycerol mixed with vimentin, IGF1 or vehicle (IGF1R protein:drug, 1 ng:19 ng), 60 min at room temperature; thermolysin 10 min at 37 °C (thermolysin:sample, 1 ng:50 ng); IGF1R detected by western blot; both purified

Row | Substance | binding [1] | binding [2]
1 | Recombinant human IGF1R protein (full length, Abnova) (from UniProt P08069 31-1367) (receptor) | binds | –
2 | vimentin (recombinant vimentin protein) (from UniProt P08670 1-466) | – | binds
